The chains behind the UniProt entries cited, without tags or fusion partners. Where a name states a change or a piece, a line headed by the entry shows the natural chain unless it says otherwise.
UniProt P51450: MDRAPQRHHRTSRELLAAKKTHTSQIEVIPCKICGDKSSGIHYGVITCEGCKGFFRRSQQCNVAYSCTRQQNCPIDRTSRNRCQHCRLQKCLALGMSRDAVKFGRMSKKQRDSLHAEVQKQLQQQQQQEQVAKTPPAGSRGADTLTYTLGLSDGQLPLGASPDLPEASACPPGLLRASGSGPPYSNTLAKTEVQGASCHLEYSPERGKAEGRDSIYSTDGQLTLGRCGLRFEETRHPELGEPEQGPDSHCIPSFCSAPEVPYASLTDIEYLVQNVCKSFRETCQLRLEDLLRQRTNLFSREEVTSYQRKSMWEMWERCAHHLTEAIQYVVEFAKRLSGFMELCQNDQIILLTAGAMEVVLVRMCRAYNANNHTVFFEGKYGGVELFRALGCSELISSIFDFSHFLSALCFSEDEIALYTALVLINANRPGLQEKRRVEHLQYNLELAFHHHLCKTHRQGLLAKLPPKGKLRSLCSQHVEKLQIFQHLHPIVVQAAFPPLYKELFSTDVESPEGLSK

In all, about 310,000 compounds went through this assay and about 17,000 (5.5%) were called active. The shares of active, inactive and inconclusive entries below differ from those in the screen. Calls follow the shape of the dose curve; as a rule, active = well fitted inhibition curve with a large enough effect; inconclusive = small, poorly fitted or top-dose-only effect, or effect the other way; inactive = no such curve, though single readings can be large or run the other way. Where the call is inconclusive, the potency comes from a doubtful curve fit.
The compounds below were run against Nuclear receptor ROR-gamma (Mus musculus) (UniProt P51450) (assay: qHTS for inhibitors of ROR gamma transcriptional activity). Conditions: Drosophila S2 Gal4-RORgamma UAS-luciferase reporter, 20 h; activity change, negative = inhibition: at 53.6 µM (top of the series).
Outline: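 Compounds are pin-transferred onto Drosophila Schneider cells expressing a copper-inducible Gal4–ROR gamma transactivation domain fusion. After 1 hr, copper sulfate is added to 700 uM final; luciferase is read 20 hr later.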
With `Clc1ccc2c(NCc3ccco3)ncnc2c1` the Potency was inconclusive: 12.6 µM [activator, single point]. With `CN(Cc1cccnc1)C(=O)c1cc(COc2ccc3c(c2)CCCC3)on1` the Potency was inconclusive: 1.78 µM [activator, partial curve]. In the case of `O=C(Nc1nccs1)C1CCN(S(=O)(=O)c2c(Cl)cccc2Cl)CC1`, the Potency is reported as active: 8.91 µM. With `NS(=O)(=O)c1nn2cc(-c3ccccc3)nc2s1` the Potency was inconclusive: 31.6 µM [inhibitor, single point]. `N#Cc1ccccc1CSc1nc2ccsc2c(=O)n1Cc1ccccn1` was tested, and the Potency was inconclusive: 10 µM [activator, partial curve]. For `CCC(=O)Nc1nc(=S)ss1`, the “activity change, negative = inhibition” value was inactive: -33.4%. In the case of `O=C(c1cccs1)N1CCC(c2nc3c(nnn3Cc3cccc(Cl)c3)c(=O)[nH]2)CC1`, the Potency is reported as inconclusive: 10 µM [activator, partial curve]. `COC(=O)c1ccc(C(NC(=O)OCc2ccccc2)/C(C)=C/[C@@H](C)C(=O)NCc2ccc(OC)c(OC)c2)cc1` (some centres undefined) was tested, and the Potency was inconclusive: 31.6 µM [activator, single point]. In the case of `O=C(NCCCN1CCCC1=O)C(=O)NCC1OCCN1S(=O)(=O)c1ccc(Br)cc1` (centres undefined), the Potency is reported as inconclusive: 15.8 µM [activator, single point]. For `C=CCC(O)(C#Cc1ccccc1)c1ccccc1` (centres undefined), the “activity change, negative = inhibition” value was inactive: 27%. `Cc1cnc(NC(=O)c2sc(Nc3ccccc3)nc2N)o1` was tested, and the Potency was inconclusive: 11.2 µM [activator, partial curve]. With `COc1ccccc1N1CCN(S(=O)(=O)c2ccc(F)cc2)CC1` the “activity change, negative = inhibition” value was inactive: 4.47%. `CC(CC(=O)N1CCN(c2ccc(C(F)(F)F)cn2)CC1)n1ccnc1` (centres undefined) was tested, and the Potency was inconclusive: 1.26 µM [activator, single point]. With `Cc1cc(C)c2nc(N3CCCC(C(=O)N4CCC(C(N)=O)CC4)C3)sc2c1` (centres undefined) the Potency was inconclusive: 35.5 µM [inhibitor, single point]. `CC1CC1c1ccc(/C=C(\C#N)C(=O)Nc2ccccc2Cl)o1` (centres undefined) was tested, and the Potency was inconclusive: 10 µM [activator, partial curve]. In the case of `O=C(CN1CCCCCCC1)N/N=C/c1ccc([N+](=O)[O-])o1`, the Potency is reported as inconclusive: 15.8 µM [inhibitor, single point]. In the case of `CN(C)c1ccc(/C=C(/C#N)C(=O)NCc2ccccc2)o1`, the Potency is reported as inconclusive: 5.01 µM [activator, partial curve]. With `COc1ccc(NC(=O)CC2Nc3cccc4cccc(c34)NC2=O)cc1` (centres undefined) the “activity change, negative = inhibition” value was inactive: -5.52%. In the case of `Cc1cccc(-c2nc3ccc(C(=O)NCCN4CCN(C)CC4)cc3nc2-c2cccc(C)c2)c1`, the Potency is reported as active: 12.6 µM. For `O=C(Nc1ccc(Cl)cc1C(=O)NCC1CCCO1)c1ccc(Cl)cc1Cl` (centres undefined), the Potency was inconclusive: 12.6 µM [activator, single point]. For `COc1ccc(NC(=O)C2CCCN(S(=O)(=O)c3ccc(C)cc3)C2)cc1OC` (centres undefined), the Potency was inconclusive: 12.6 µM [activator, single point]. For `CNS(=O)(=O)c1cc(Br)ccc1S(=O)c1ccccc1C(=O)O` (centres undefined), the “activity change, negative = inhibition” value was inactive: -16.2%. `COc1ccc(C(C(=O)NCc2ccccc2)N(Cc2cccnc2)C(=O)c2snc(C(N)=O)c2N)cc1OC` (centres undefined) was tested, and the “activity change, negative = inhibition” value was inactive: -4.12%. For `N/C(=N\OC(=O)c1ccc(Cl)cc1Cl)c1ccccc1`, the Potency was active: 5.01 µM. In the case of `CCSC1(SCC)N=C(N)C2(C#N)C(c3ccccc3)NC3=C(CCC3)C12C#N` (centres undefined), the Potency is reported as inconclusive: 4.47 µM [inhibitor, full curve]. In the case of `COc1ccc(OC)c(-c2cc(C(=O)Nc3c(C)nn(Cc4ccc(Cl)cc4)c3C)no2)c1`, the Potency is reported as inconclusive: 6.31 µM [activator, partial curve]. With `O=C(Nc1nc(-c2ccc(Cl)s2)cs1)c1cccs1` the Potency was inconclusive: 5.62 µM [activator, single point]. With `COc1ccc(C(=O)COc2ccccc2N2C(=O)C3C4C=CC(C4)C3C2=O)cc1` (centres undefined) the Potency was inconclusive: 14.1 µM [activator, single point]. With `O=C(Nc1ccc(F)cc1F)c1noc2c1CCC2` the Potency was inconclusive: 0.562 µM [activator, full curve, poor fit]. In the case of `O=C1CC(c2ccco2)CC(O)=C1C=Nc1ccccc1-c1ccccc1` (centres undefined), the Potency is reported as inconclusive: 17.8 µM [activator, single point]. In the case of `O=C(COc1ccc(Cl)cc1Cl)Nc1ccc(Cl)cn1`, the Potency is reported as inconclusive: 11.2 µM [inhibitor, single point]. For `O=C(NCCNC(=O)c1cc(OCC(F)(F)F)ccc1OCC(F)(F)F)Nc1ccc(Cl)cc1`, the Potency was inconclusive: 5.62 µM [activator, partial curve]. In the case of `O=C(Nc1ccc(NC(=O)c2cccs2)cc1)c1cccs1`, the Potency is reported as inconclusive: 1.26 µM [activator, full curve, poor fit]. For `N#Cc1c(NC(=O)CSCC(=O)O)sc2c1CCCC2`, the Potency was inconclusive: 31.6 µM [inhibitor, single point]. In the case of `Cc1nc(NC(=O)c2ccccc2)sc1-c1csc(NCc2ccco2)n1`, the Potency is reported as active: 20 µM. In the case of `Nc1nc(SCC(=O)N2CCCC2)[nH]c(=O)c1NC(=O)c1ccco1`, the Potency is reported as inconclusive: 0.0891 µM [activator, full curve, poor fit]. `O=C(Nc1nc2c(s1)COc1ccccc1-2)c1cccs1` was tested, and the Potency was inconclusive: 35.5 µM [inhibitor, single point]. `O=C1CC(c2ccccc2Cl)CC(O)=C1C=Nc1ccccc1` (centres undefined) was tested, and the Potency was inconclusive: 11.2 µM [activator, single point]. With `COc1ccccc1Cn1c(=O)c2ccccc2n2c(Sc3ncnc4sccc34)nnc12` the Potency was active: 11.2 µM. With `O=C(N/N=C/C1CC=CCC1)c1cc(Br)ccc1O` (centres undefined) the Potency was inconclusive: 11.2 µM [inhibitor, single point]. `Cc1nc(NC(=O)C(Cl)Cl)sc1C(=O)N(C)C` was tested, and the “activity change, negative = inhibition” value was inactive: -23.5%. `COc1cc2c(cc1NC(=O)COc1ccccc1OC)oc1ccccc12` was tested, and the “activity change, negative = inhibition” value was inactive: -0.0234%. With `Cc1cccc(OCC(=O)Nc2ccc(N3CCN(C(=O)c4ccco4)CC3)cc2)c1C` the “activity change, negative = inhibition” value was inactive: -16.5%. With `Cc1ccc(C)c(NC(=S)NC(NC(=O)Cc2ccccc2)C(Cl)(Cl)Cl)c1` (centres undefined) the Potency was inconclusive: 22.4 µM [inhibitor, single point].
% is scaled to controls: 0 for no effect and ±100 for the full control effect; potency is read from the fitted curve at half-maximal effect.
Also: nearly all actives have a fitted effect of over 60% in size.
